Data published in patent US20240302387A1, “HIGHLY FLUORINATED COMPOUNDS FOR 19F MRI-BASED THERMOMETRY” (Regents of the University of Minnesota, priority 2023, published 2024).

What was measured:
[1] = 19F NMR variable temperature measurement in THF-d8 (temperature responsiveness); format: physicochemical; conditions: for Responsiveness in THF-d8: slope of chemical shift difference of most responsive 19F resonance pair vs temperature; for direction of movement of aryl 19F resonance(s) with increase of temperature: aromatic region of 19F NMR spectra; for increase in responsiveness relative to PFTBA: THF; for Responsiveness in THF-d8 / responsiveness lost from oxidation (sulfone vs parent sulfide DD-1 / DD-3): THF-d8
[2] = 19F NMR variable temperature measurement in aqueous phosphate buffer (temperature responsiveness); format: physicochemical; conditions: for Responsiveness in aqueous phosphate buffer: 10 mM pH 6.9 phosphate buffer/D2O, 5% DMSO; for improvement in aqueous responsiveness relative to PFTBA: phosphate buffer

SMILES | Responsiveness in THF-d8 [1] | Responsiveness in aqueous phosphate buffer [2] | direction of movement of CF2 19F resonances with increase of temperature ([1]; 27 to 47° C.) | direction of movement of aryl 19F resonance(s) with increase of temperature [1] | improvement in aqueous responsiveness relative to PFTBA [2] [%] | increase in responsiveness relative to PFTBA [1] | responsiveness lost from oxidation (sulfone vs parent sulfide DD-1 / DD-3) [1] [%]
FC(F)(F)C(F)(F)C(F)(F)C(F)(F)N(C(F)(F)C(F)(F)C(F)(F)C(F)(F)F)C(F)(F)C(F)(F)C(F)(F)C(F)(F)F [CC-1, perfluorotributylamine, reference compound] | 9.45 ×10^−3 ppm/° C. | 9.62 ×10^−3 ppm/° C. |  |  |  |  | 
Fc1c(F)c(-c2c(F)c(F)c(SCCC(F)(F)C(F)(F)C(F)(F)C(F)(F)C(F)(F)C(F)(F)C(F)(F)C(F)(F)F)c(F)c2F)c(F)c(F)c1SCCC(F)(F)C(F)(F)C(F)(F)C(F)(F)C(F)(F)C(F)(F)C(F)(F)C(F)(F)F [CC-2, (perfluoro-[1,1′-biphenyl]-4,4′-diyl)bis((3,3,4,4,5,5,6,6,7,7,8,8,9,9,10,10,10-heptadecafluorodecyl)sulfane), reference compound] | 14.5 ×10^−3 ppm/° C. |  |  |  |  |  | 
Fc1c(F)c(SCCC(F)(F)C(F)(F)C(F)(F)C(F)(F)C(F)(F)C(F)(F)C(F)(F)C(F)(F)F)c(F)c(F)c1SCCC(F)(F)C(F)(F)C(F)(F)C(F)(F)C(F)(F)C(F)(F)C(F)(F)C(F)(F)F [CC-3, (perfluoro-1,4-phenylene)bis((3,3,4,4,5,5,6,6,7,7,8,8,9,9,10,1 0,10-heptadecafluorodecyl)sulfane), reference compound] | 14.2 ×10^−3 ppm/° C. |  |  |  |  |  | 
Fc1c(F)c(SCCCC(F)(F)C(F)(F)F)c(F)c(F)c1SCCCC(F)(F)C(F)(F)F [DD-1, (perfluoro-1,4-phenylene)bis((4,4,5,5,5-pentafluoropentyl)sulfane)] | 15.98±0.05 ×10^−3 ppm/° C. and ~16 ×10^−3 ppm/° C. and 16.0 ×10^−3 ppm/° C. | 17.57±0.05 ×10^−3 ppm/° C. and 17.57 ×10^−3 ppm/° C. and 17.6 ×10^−3 ppm/° C. | downfield | upfield | 82 |  | 
O=S(=O)(CCCC(F)(F)C(F)(F)F)c1c(F)c(F)c(S(=O)(=O)CCCC(F)(F)C(F)(F)F)c(F)c1F [DD-2, 1,2,4,5-tetrafluoro-3,6-bis((4,4,5,5,5-pentafluoropentyl)sulfonyl) benzene] | 12.7 ×10^−3 ppm/° C. |  |  | downfield |  | 1900 | 30
Fc1c(F)c(-c2c(F)c(F)c(SCCCC(F)(F)C(F)(F)F)c(F)c2F)c(F)c(F)c1SCCCC(F)(F)C(F)(F)F [DD-3, (perfluoro-[1,1′-biphenyl]-4,4′-diyl)bis((4,4,5,5,5-pentafluoropentyl)sulfane)] | ~16 ×10^−3 ppm/° C. and 16.5 ×10^−3 ppm/° C. | 16.16 ×10^−3 ppm/° C. and 17.0 ×10^−3 ppm/° C. |  | upfield | 72 | 7500 | 
O=S(=O)(CCCC(F)(F)C(F)(F)F)c1c(F)c(F)c(-c2c(F)c(F)c(S(=O)(=O)CCCC(F)(F)C(F)(F)F)c(F)c2F)c(F)c1F [DD-4, 2,2′,3,3′,5,5′,6,6′-octafluoro-4,4′-bis((4,4,5,5,5-pentafluoropentyl)sulfonyl)-1,1′-biphenyl] | 12.9 ×10^−3 ppm/° C. |  |  | downfield |  |  | 22
Fc1c(F)c(Sc2c(F)c(F)c(SCCCC(F)(F)C(F)(F)F)c(F)c2F)c(F)c(F)c1SCCCC(F)(F)C(F)(F)F [DD-5, bis(2,3,5,6-tetrafluoro-4-((4,4,5,5,5-pentafluoropentyl)thio)phenyl)sulfane] | ~16 ×10^−3 ppm/° C. and 16.4 ×10^−3 ppm/° C. |  |  | upfield |  |  | 
O=S(=O)(c1c(F)c(F)c(SCCCC(F)(F)C(F)(F)F)c(F)c1F)c1c(F)c(F)c(SCCCC(F)(F)C(F)(F)F)c(F)c1F [DD-6, (sulfonylbis(2,3,5,6-tetrafluoro-4,1-phenylene))bis((4,4,5,5,5-pentafluoropentyl)sulfane)] | 11.53 ×10^−3 ppm/° C. and 11.5 ×10^−3 ppm/° C. |  |  | downfield |  |  | 

“And” between values parts separate entries of the source, which are not always exact repeats. Identical values can stand only once.
